No constants are given. Whether binding was seen depends on the method and setting. Binding seen in cells or lysates may run through a third protein. Some binding calls cover weakened binding; strength is not graded here. Tags and fused reporters may be left off the sequences shown.

The target of assay [1] is T1, ASNA-1::GFP (C. elegans) (UniProt P30632).
T1 sequence: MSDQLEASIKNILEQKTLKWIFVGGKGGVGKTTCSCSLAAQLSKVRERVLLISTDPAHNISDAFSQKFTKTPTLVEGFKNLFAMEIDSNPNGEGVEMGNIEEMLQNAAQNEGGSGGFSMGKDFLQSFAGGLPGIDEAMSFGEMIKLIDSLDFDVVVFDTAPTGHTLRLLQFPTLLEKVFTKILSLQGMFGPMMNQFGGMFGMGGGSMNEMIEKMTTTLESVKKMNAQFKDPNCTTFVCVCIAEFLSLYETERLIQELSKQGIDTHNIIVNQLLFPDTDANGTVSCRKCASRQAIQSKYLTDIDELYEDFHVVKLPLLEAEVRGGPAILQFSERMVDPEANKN
In words: co-IP; anti-GFP magnetic beads (ChromoTek GFP-Trap) with 800-1000 µg lysate of adult worms co-expressing both tagged proteins, 1 h at 4°C; lysis in 10 mM Tris-HCl pH 7.4, 150 mM NaCl, 5 mM EDTA, 0.5% NP40; western blot. Also done with ablated ASI neurons (oyIs84), in daf-28(tm2308), kpc-1(gk8), ins-4(tm3620), unc-31(e928) and sod-2(gk257) mutants, and after 5 mM H2O2 for 30 min. (Immunoblotting shows a protein as a band on a membrane.)

Assay [2] concerns the target T1, ASNA-1::GFP (C. elegans). In words: condition: only the two proteins expressed in separate tissues (neurons and body wall muscle), so that they meet only after lysis; co-IP; control for binding after lysis: ASNA-1::GFP under a pan-neuronal promoter and 3xFlag::ENPL-1 under a body wall muscle promoter (separate tissues of the same worms); anti-GFP beads, western blot.

B1: 3xFlag::ENPL-1 (protein, UniProt Q22235 24-760)
chain: EDEIEDAPKETKEETREEDSIKLDGLSVSQIKELRSKAEKHEFQAEVNRMMKLIINSLYRNKEIFLRELISNASDALDKIRLLSLTDPEQLRETEEMSVKIKADRENRLLHITDTGVGMTRQDLINNLGTIARSGTSEFLSKLMDTATSSDQQQDLIGQFGVGFYAAFLVADRVVVTTKNNDDDQYIWESDSASFTISKDPRGNTLKRGTQITLYLKEEAADFLEPDTLKNLVHKYSQFINFDIFLWQSKTEMVEEAVEEEPATTEDGAVEEEKEEKKTKKVEKTTWDWEKVNNVKPIWMRKPNQVEEDEYKQFYKSITKDSEEPLSHVHFSAEGEVSFRSILYVPKKSPNDMFQNYGKVIENIKLYVRRVFITDDFADMLPKYLSFIRGIVDSDDLPLNVSRENLQQHKLLKVIKKKLVRKVLDMLKKLDGAQFDDFWSEFSTNIKLGVMEDPSNRMRLAKLLRFQSSNDADKTTTLAAYVERMKEKQDAIYYMAGTSRKEVETSPFVERLIAKGYEVLFLTEAVDEYCIQAMPEYESKKFQNVAKEGVTIDDGEKAKEAHKGLEEEFKPLTDWLKETALKDLIEKAVVSQRLVKSPSALVASSYGWSGNMERIMKSQAYAKAKDPTQDFYATQKKTFEINPRHPVIKELLKRVTASEEDTTAASTAKLLFETATLRSGFSLQDQVGFADRIEAVLRQSLDVSQDAQVETEQHIEEAEPEPEAAEETTIEEEHSEL
On to B1, for which the values for the binding entry in the assay with ASNA-1::GFP (C. elegans) [1] and in the assay with ASNA-1::GFP (C. elegans) [2] were “binds” and “no binding”, respectively.

These data come from PMC10112894.
